Assay results published in publication PMC4546468.

Protein sequences, listed by entry. Tags and fused reporters are not part of them. Lines headed by an entry give the natural chain unless they say otherwise; changes in a name come on top. Residues count along the entry.
UniProt P18084: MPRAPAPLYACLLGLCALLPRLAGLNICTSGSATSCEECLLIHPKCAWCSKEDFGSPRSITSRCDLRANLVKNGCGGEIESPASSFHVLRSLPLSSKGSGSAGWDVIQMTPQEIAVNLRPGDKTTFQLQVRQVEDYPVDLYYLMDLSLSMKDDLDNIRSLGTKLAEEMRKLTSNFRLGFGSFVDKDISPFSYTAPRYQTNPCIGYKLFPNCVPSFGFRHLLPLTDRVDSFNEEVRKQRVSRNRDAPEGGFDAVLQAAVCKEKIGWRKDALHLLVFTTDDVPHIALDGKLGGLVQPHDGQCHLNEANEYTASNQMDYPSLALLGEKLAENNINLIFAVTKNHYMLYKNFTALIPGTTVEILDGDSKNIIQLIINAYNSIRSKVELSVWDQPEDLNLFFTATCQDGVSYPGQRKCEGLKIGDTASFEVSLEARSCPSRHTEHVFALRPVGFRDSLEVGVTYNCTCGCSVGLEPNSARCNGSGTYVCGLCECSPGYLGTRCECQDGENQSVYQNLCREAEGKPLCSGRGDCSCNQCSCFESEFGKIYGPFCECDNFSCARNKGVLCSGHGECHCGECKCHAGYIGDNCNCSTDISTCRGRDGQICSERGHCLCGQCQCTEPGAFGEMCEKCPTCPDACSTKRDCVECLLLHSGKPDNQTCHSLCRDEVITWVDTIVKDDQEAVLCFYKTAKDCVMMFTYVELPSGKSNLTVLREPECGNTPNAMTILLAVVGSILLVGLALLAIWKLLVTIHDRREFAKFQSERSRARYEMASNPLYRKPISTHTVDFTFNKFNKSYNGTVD
UniProt P11362, residues 22-822: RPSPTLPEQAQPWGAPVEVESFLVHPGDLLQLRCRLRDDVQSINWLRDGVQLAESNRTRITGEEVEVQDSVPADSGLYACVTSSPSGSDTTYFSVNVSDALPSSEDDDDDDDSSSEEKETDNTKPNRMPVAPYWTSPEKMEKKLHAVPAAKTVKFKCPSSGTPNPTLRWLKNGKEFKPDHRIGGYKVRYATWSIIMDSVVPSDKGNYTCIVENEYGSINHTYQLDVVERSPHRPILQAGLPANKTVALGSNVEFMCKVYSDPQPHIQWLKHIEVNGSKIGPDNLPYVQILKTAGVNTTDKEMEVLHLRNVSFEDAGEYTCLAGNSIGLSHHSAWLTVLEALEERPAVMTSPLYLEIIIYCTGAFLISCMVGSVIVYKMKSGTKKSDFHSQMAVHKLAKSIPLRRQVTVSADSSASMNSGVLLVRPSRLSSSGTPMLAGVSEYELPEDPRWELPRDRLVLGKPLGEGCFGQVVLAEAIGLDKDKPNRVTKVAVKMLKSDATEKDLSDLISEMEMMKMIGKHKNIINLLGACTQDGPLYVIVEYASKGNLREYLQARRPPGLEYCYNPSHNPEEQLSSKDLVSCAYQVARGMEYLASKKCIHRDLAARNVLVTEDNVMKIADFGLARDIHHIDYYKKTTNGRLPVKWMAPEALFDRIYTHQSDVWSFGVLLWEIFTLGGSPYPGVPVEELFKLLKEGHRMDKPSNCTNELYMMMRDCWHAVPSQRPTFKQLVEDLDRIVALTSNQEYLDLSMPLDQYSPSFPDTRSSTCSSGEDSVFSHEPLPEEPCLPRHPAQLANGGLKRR

Target: β5 integrin (human (endogenous; the cells of this experiment are not named, all cells of the paper are human)) (UniProt P18084)
Assay: co-IP; endogenous proteins; cells lysed in RIPA non-denaturant lysis buffer, supernatant with primary antibody (1/50) 12 hours at 4°C, protein A magnetic beads, Western blotting; also after surface cross-linking of cells with 2 mM DSP for 30 minutes at room temperature; tested upon FGF-2 presentation

binding: no binding
Substance: FGFR1 (from UniProt P11362 22-822) (receptor)

Results are given in words; binding and its absence hold for the method and conditions named. In cells and extracts the contact can be indirect.
